# Cleaved PARP after 72 h of treatment

All values are for the listed drug together with CX-4945 (2000 nM): O=C(O)c1ccc2c(c1)nc(Nc1cccc(Cl)c1)c1ccncc12

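Human melanoma cell lines in 1,536-well plates were treated with two drugs together for 72 h, then fixed, stained and imaged. Values are the share of nuclei positive for cleaved PARP as a percentage of the same share in the DMSO control: 100 is the control level, higher means more apoptosis. Every drug was used at one fixed concentration, the higher of two screened. These are primary screening values without error estimates. The marker varies much from line to line, for technical or biological reasons.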 An unselected part of the screen is shown. An entry leaves out what has no value listed here.

{"partner": "CC1(C)NC(=O)N(c2ccc([N+](=O)[O-])c(C(F)(F)F)c2)C1=O at 5000 nM", "SK-MEL-30": 163, "RPMI-7951": 152, "WM115": 79.7, "WM3619": 124, "MZ2-MEL": 143, "MEL-HO": 120}
{"partner": "NC1(c2ccc(-c3nc4ccn5c(=O)[nH]nc5c4cc3-c3ccccc3)cc2)CCC1 at 2000 nM", "SK-MEL-30": 372, "RPMI-7951": 124, "WM115": 1220, "WM3619": 114, "MZ2-MEL": 132, "MEL-HO": 85.2}
{"partner": "CC1(C)CCC(c2ccc(Cl)cc2)=C(CN2CCN(c3ccc(C(=O)NS(=O)(=O)c4ccc(N[C@H](CCN5CCOCC5)CSc5ccccc5)c(S(=O)(=O)C(F)(F)F)c4)cc3)CC2)C1 at 2000 nM", "SK-MEL-30": 1260, "RPMI-7951": 388, "WM115": 1500, "WM3619": 238, "MZ2-MEL": 1070, "MEL-HO": 393}
{"partner": "O=C(O)C(=O)Nc1sc2c(c1C(=O)O)CCNC2 at 8330 nM", "SK-MEL-30": 73.9, "RPMI-7951": 136, "WM115": 97.0, "WM3619": 247, "MZ2-MEL": 168, "MEL-HO": 147}
{"partner": "N.N.[Cl][Pt][Cl] at 8000 nM", "SK-MEL-30": 161, "RPMI-7951": 122, "WM115": 197, "WM3619": 117, "MZ2-MEL": 275, "MEL-HO": 134}
{"partner": "COc1cc(Nc2ncc(F)c(Nc3ccc4c(n3)NC(=O)C(C)(C)O4)n2)cc(OC)c1OC at 2000 nM", "SK-MEL-30": 142, "RPMI-7951": 140, "WM115": 111, "WM3619": 183, "MZ2-MEL": 360, "MEL-HO": 207}
{"partner": "O=C(/C=C/c1cccnc1)NCCCCC1CCN(C(=O)c2ccccc2)CC1 at 50 nM", "SK-MEL-30": 209, "RPMI-7951": 93.4, "WM115": 277, "WM3619": 121, "MZ2-MEL": 862, "MEL-HO": 469}
{"partner": "CCCCCCCCCCCCCCCCCCOP(=O)([O-])OC1CC[N+](C)(C)CC1 at 2000 nM", "SK-MEL-30": 128, "RPMI-7951": 210, "WM115": 112, "WM3619": 107, "MZ2-MEL": 95.4, "MEL-HO": 138}
{"partner": "Oc1cc(-c2nc(-c3ccccc3)[nH]c2-c2ccncc2)ccc1Cl at 1000 nM", "SK-MEL-30": 204, "RPMI-7951": 76.4, "WM115": 165, "WM3619": 138, "MZ2-MEL": 123, "MEL-HO": 99.6}
{"partner": "Cn1nnc2c(C(N)=O)ncn2c1=O at 10000 nM", "SK-MEL-30": 208, "RPMI-7951": 112, "WM115": 266, "WM3619": 132, "MZ2-MEL": 296, "MEL-HO": 129}
{"partner": "O=C(Oc1ccc([N+](=O)[O-])cc1)N1CCC(C(O)(c2ccc3c(c2)OCO3)c2ccc3c(c2)OCO3)CC1 at 5000 nM", "SK-MEL-30": 129, "RPMI-7951": 150, "WM115": 62.5, "WM3619": 107, "MZ2-MEL": 64.4, "MEL-HO": 114}
{"partner": "CCN(CC)CCNC(=O)c1c(C)[nH]c(/C=C2\\C(=O)Nc3ccc(F)cc32)c1C at 2000 nM", "SK-MEL-30": 148, "RPMI-7951": 261, "WM115": 282, "WM3619": 148, "MZ2-MEL": 68.6, "MEL-HO": 196}
{"partner": "O=C(O)[C@@H]1[O][Sb](=[O])([O][Sb]2(=[O])[O][C@H]([C@H](O)CO)[C@H](O)[C@H](C(=O)O)[O]2)[O][C@H]([C@H](O)CO)[C@@H]1O (some centres not stated) at 10000 nM", "SK-MEL-30": 59.2, "RPMI-7951": 203, "WM115": 377, "WM3619": 120, "MZ2-MEL": 243, "MEL-HO": 41.4}
{"partner": "COc1ccc2c(c1)CCC1C2CCC2(C)C(NCCCCCCN3C(=O)C=CC3=O)CCC12 (configuration not stated) at 2000 nM", "SK-MEL-30": 227, "RPMI-7951": 130, "WM115": 174, "WM3619": 330, "MZ2-MEL": 172, "MEL-HO": 131}
{"partner": "COc1cc(N2CCC(N3CCN(C)CC3)CC2)ccc1Nc1ncc(Cl)c(Nc2ccccc2S(=O)(=O)C(C)C)n1 at 400 nM", "SK-MEL-30": 151, "RPMI-7951": 78.2, "WM115": 364, "WM3619": 121, "MZ2-MEL": 266, "MEL-HO": 92.5}
{"partner": "Cc1nc(Nc2ncc(C(=O)Nc3c(C)cccc3Cl)s2)cc(N2CCN(CCO)CC2)n1 at 20 nM", "SK-MEL-30": 209, "RPMI-7951": 108, "WM115": 758, "WM3619": 140, "MZ2-MEL": 444, "MEL-HO": 96.3}
{"partner": "CC(C)CCN1c2nc(Nc3cc(F)c(O)c(F)c3)ncc2N(C)C(=O)C1C (configuration not stated) at 1000 nM", "SK-MEL-30": 166, "RPMI-7951": 440, "WM115": 74.6, "WM3619": 174, "MZ2-MEL": 224, "MEL-HO": 189}
{"partner": "c1cc(-c2cnn3cc(-c4ccc(OCCN5CCCCC5)cc4)cnc23)ccn1 at 2000 nM", "SK-MEL-30": 163, "RPMI-7951": 213, "WM115": 97.3, "WM3619": 139, "MEL-HO": 167}
{"partner": "COc1cc([C@@H]2c3cc4c(cc3[C@@H](O[C@@H]3O[C@@H]5CO[C@@H](C)O[C@H]5[C@H](O)[C@H]3O)[C@H]3COC(=O)[C@H]23)OCO4)cc(OC)c1O at 100 nM", "SK-MEL-30": 139, "RPMI-7951": 268, "WM115": 58.3, "WM3619": 145, "MZ2-MEL": 143, "MEL-HO": 147}
{"partner": "CC(C)C[C@H](NC(=O)[C@H](Cc1ccccc1)NC(=O)c1cnccn1)B(O)O at 5 nM", "SK-MEL-30": 1120, "RPMI-7951": 1880, "WM115": 4560, "WM3619": 4540, "MZ2-MEL": 25000, "MEL-HO": 244}
{"partner": "COc1ccc(C2=N[C@@H](c3ccc(Cl)cc3)[C@@H](c3ccc(Cl)cc3)N2C(=O)N2CCNC(=O)C2)c(OC(C)C)c1 at 500 nM", "SK-MEL-30": 194, "RPMI-7951": 97.1, "WM115": 71.0, "WM3619": 117, "MZ2-MEL": 99.6, "MEL-HO": 153}
{"partner": "C/C(O)=C(\\C#N)C(=O)Nc1cc(Br)ccc1Br at 10000 nM", "SK-MEL-30": 276, "RPMI-7951": 114, "WM115": 104, "WM3619": 127, "MEL-HO": 132}
{"partner": "Nc1cccc2c1CN(C1CCC(=O)NC1=O)C2=O (configuration not stated) at 5000 nM", "SK-MEL-30": 127, "RPMI-7951": 92.1, "WM115": 66.2, "WM3619": 107, "MZ2-MEL": 193, "MEL-HO": 108}
{"partner": "CCN(CC)CCCCNc1ncc2cc(-c3cc(OC)cc(OC)c3)c(NC(=O)NC(C)(C)C)nc2n1 at 500 nM", "SK-MEL-30": 128, "RPMI-7951": 106, "WM115": 26.3, "WM3619": 206, "MZ2-MEL": 166, "MEL-HO": 116}
{"partner": "CC(C)(C)c1cnc(CSc2cnc(NC(=O)C3CCNCC3)s2)o1 at 50 nM", "SK-MEL-30": 131, "RPMI-7951": 490, "WM115": 184, "WM3619": 251, "MZ2-MEL": 247, "MEL-HO": 106}
{"partner": "Cn1cc(/C=C2\\C(=O)Nc3cccnc32)c2ccccc21 at 2000 nM", "SK-MEL-30": 105, "RPMI-7951": 63.9, "WM115": 86.5, "WM3619": 121, "MEL-HO": 222}
{"partner": "Cn1c(Nc2ccc(C(F)(F)F)cc2)nc2cc(Oc3ccnc(-c4ncc(C(F)(F)F)[nH]4)c3)ccc21 at 400 nM", "SK-MEL-30": 261, "RPMI-7951": 459, "WM115": 346, "WM3619": 183, "MZ2-MEL": 129, "MEL-HO": 189}
{"partner": "Cc1ccc(Nc2nccc(N(C)c3ccc4c(C)n(C)nc4c3)n2)cc1S(N)(=O)=O at 2000 nM", "SK-MEL-30": 130, "RPMI-7951": 253, "WM115": 173, "WM3619": 61.0, "MZ2-MEL": 272, "MEL-HO": 109}
{"partner": "O=C1NC(=O)/C(=C/c2ccc(-c3ccc(F)cc3O)o2)S1 at 5000 nM", "SK-MEL-30": 198, "RPMI-7951": 101, "WM115": 98.1, "WM3619": 113, "MZ2-MEL": 156, "MEL-HO": 75.2}
{"partner": "C[C@]12O[C@H](C[C@]1(O)CO)n1c3ccccc3c3c4c(c5c6ccccc6n2c5c31)CNC4=O at 20 nM", "SK-MEL-30": 288, "RPMI-7951": 139, "WM115": 232, "WM3619": 133, "MZ2-MEL": 151, "MEL-HO": 61.5}
{"partner": "Cc1cc(Nc2cc(N3CCN(C)CC3)nc(Sc3ccc(NC(=O)C4CC4)cc3)n2)n[nH]1 at 30 nM", "SK-MEL-30": 116, "RPMI-7951": 202, "WM115": 1120, "WM3619": 157, "MZ2-MEL": 1650, "MEL-HO": 88.5}
{"partner": "C=CCNC1=C2C[C@@H](C)C[C@H](OC)[C@H](O)[C@@H](C)/C=C(\\C)[C@H](OC(N)=O)[C@@H](OC)/C=C\\C=C(/C)C(=O)NC(=CC1=O)C2=O at 10 nM", "SK-MEL-30": 222, "RPMI-7951": 545, "WM115": 4330, "WM3619": 207, "MZ2-MEL": 331, "MEL-HO": 491}

The first 3 entries again:

{"partner": "CC1(C)NC(=O)N(c2ccc([N+](=O)[O-])c(C(F)(F)F)c2)C1=O at 5000 nM", "SK-MEL-30": 163, "RPMI-7951": 152, "WM115": 79.7, "WM3619": 124, "MZ2-MEL": 143, "MEL-HO": 120}
{"partner": "NC1(c2ccc(-c3nc4ccn5c(=O)[nH]nc5c4cc3-c3ccccc3)cc2)CCC1 at 2000 nM", "SK-MEL-30": 372, "RPMI-7951": 124, "WM115": 1220, "WM3619": 114, "MZ2-MEL": 132, "MEL-HO": 85.2}
{"partner": "CC1(C)CCC(c2ccc(Cl)cc2)=C(CN2CCN(c3ccc(C(=O)NS(=O)(=O)c4ccc(N[C@H](CCN5CCOCC5)CSc5ccccc5)c(S(=O)(=O)C(F)(F)F)c4)cc3)CC2)C1 at 2000 nM", "SK-MEL-30": 1260, "RPMI-7951": 388, "WM115": 1500, "WM3619": 238, "MZ2-MEL": 1070, "MEL-HO": 393}

Data from the primary screen of doi:10.1371/journal.pone.0140310, rounded.